The text below walks through data of patent publication EP2167056B1, “TRANSDERMAL AND TRANSMUCOSAL DRUG DELIVERY ENHANCERS” (priority 2007, dated 2008).

This series is described as follows: Franz diffusion cell permeation of hydromorphone hydrochloride with delmopinol analogues (Example 2). To be noted: 5 % hydromorphone hydrochloride, no enhancing agent added. As to the method: The permeation test was carried out using a Franz diffusion cell with a diffusion area of 1.8 cm^2 as in Example 1. […] Penetration with or without addition of different delmopinol analogues was studied in 5 parallel tests (3 cells per test).

In the case of `CN1CC[C@]23c4c5ccc(O)c4O[C@H]2C(=O)CC[C@H]3[C@H]1C5.Cl` [hydromorphone hydrochloride, reference compound], the “amount of hydromorphone hydrochloride found on the receptor side” value was “no detectable amount”.
